The target in this assay is T1, Arabidopsis TRN1, full-length CDS in the pGBKT7 bait vector (Arabidopsis thaliana) (UniProt Q8H0U4).
T1 sequence: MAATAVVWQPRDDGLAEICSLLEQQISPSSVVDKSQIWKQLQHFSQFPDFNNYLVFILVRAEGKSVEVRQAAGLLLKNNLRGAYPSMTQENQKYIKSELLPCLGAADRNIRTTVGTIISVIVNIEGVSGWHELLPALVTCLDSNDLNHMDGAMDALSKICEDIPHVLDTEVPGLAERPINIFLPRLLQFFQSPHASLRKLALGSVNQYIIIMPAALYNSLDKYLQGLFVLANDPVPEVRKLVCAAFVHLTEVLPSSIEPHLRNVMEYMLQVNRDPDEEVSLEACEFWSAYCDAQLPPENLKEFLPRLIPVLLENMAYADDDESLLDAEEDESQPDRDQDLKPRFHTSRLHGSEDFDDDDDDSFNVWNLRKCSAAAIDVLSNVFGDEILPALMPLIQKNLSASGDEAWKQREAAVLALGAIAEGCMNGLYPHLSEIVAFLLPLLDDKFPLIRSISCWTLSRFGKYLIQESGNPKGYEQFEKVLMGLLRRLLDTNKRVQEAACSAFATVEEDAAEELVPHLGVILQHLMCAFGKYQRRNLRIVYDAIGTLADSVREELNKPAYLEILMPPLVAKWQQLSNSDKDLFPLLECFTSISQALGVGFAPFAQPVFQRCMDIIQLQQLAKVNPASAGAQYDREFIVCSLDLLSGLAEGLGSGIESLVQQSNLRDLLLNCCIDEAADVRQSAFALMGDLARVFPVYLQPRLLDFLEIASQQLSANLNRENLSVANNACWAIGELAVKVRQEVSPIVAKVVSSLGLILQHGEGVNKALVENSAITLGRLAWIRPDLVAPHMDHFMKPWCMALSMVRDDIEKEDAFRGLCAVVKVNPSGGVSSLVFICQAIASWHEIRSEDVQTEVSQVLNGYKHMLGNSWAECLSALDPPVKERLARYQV
Description: two-hybrid.

These are yes or no findings as the source states them, for the method shown. A result given as binding can be weak or reduced; the word gives no strength.

In the case of “full-length PLA2-like in the pGADT7 prey vector (Arabidopsis thaliana)”, the binding entry is listed as “binds”.

Values taken from publication doi:10.1101/2025.07.20.665762.
